Some results were stated once for a whole list of compounds, not compound by compound.
Tests used:
Assay type in all cases: in vivo
Venturia inaequalis = test: Venturia test (apple)/protective; conditions: active compound concentration of 100 ppm, protective, evaluation 10 days after the inoculation
Sphaerotheca fuliginea = test: Sphaerotheca test (cucumber)/protective; conditions: active compound concentration of 500 ppm, protective, evaluation 7 days after the inoculation
Puccinia triticina = Puccinia triticina test (wheat)/protective; conditions: active compound concentration of 500 ppm, protective, evaluation 8 days after the inoculation
Alternaria solani = test: Alternaria test (tomato)/protective; conditions: active compound concentration of 500 ppm, protective, evaluation 7 days after the inoculation
Botrytis cinerea = test: Botrytis test (bean)/protective; conditions: active compound concentration of 250 ppm, protective, evaluated 2 days after the inoculation

Row | Molecule | efficacy (Venturia inaequalis) [%] | efficacy (Sphaerotheca fuliginea) [%] | efficacy (Puccinia triticina) [%] | efficacy (Alternaria solani) [%] | efficacy (Botrytis cinerea) [%]
1 | 1-(3-{[4-(Cyclopropylamino)-5-(trifluoromethyl)pyrimidin-2-yl]amino}phenyl)pyrrolidin-2-one [Example 236] | ≥ 70 |  |  |  | 
2 | CC1CC1Nc1nc(Nc2cccc(N3CCCC3=O)c2)ncc1Cl (single isomer, unassigned) [Example 254] | ≥ 70 |  |  |  | 
3 | COCC(C)Nc1nc(Nc2ccc(N3C(=O)OCC3C)cc2)ncc1Br (stereo not drawn) [Example 4] | ≥ 70 |  |  |  | 
4 | COCC(C)Nc1nc(Nc2cccc(N3CCCC3=O)c2)ncc1C(F)(F)F (stereo not drawn) [Example 6] | ≥ 70 | ≥ 70 | ≥ 70 | ≥ 70 | 
5 | CC(C)Nc1nc(Nc2cccc(N3CCCC3=O)c2)ncc1Cl [Example 22] | ≥ 70 | ≥ 70 | ≥ 70 | ≥ 70 | 
6 | CCC1COC(=O)N1c1cccc(Nc2ncc(Br)c(NC3CCC3)n2)c1 (stereo not drawn) [Example 34] | ≥ 70 | ≥ 70 |  | ≥ 70 | 
7 | CCC1COC(=O)N1c1cccc(Nc2ncc(Cl)c(NC3CCC3)n2)c1 (stereo not drawn) [Example 35] | ≥ 70 | ≥ 70 | ≥ 70 | ≥ 70 | 
8 | O=C1CCCN1c1cccc(Nc2ncc(Cl)c(NCC(F)F)n2)c1 [Example 44] | ≥ 70 | ≥ 70 | ≥ 70 |  | 
9 | CC(C)C1COC(=O)N1c1cccc(Nc2ncc(Br)c(NC3CC3)n2)c1 (stereo not drawn) [Example 45] | ≥ 70 |  | ≥ 70 |  | 
10 | CC(C)C1COC(=O)N1c1cccc(Nc2ncc(Cl)c(NC3CCC3)n2)c1 (stereo not drawn) [Example 46] | ≥ 70 | ≥ 70 |  | ≥ 70 | ≥ 70
11 | CC(C)CC1COC(=O)N1c1cccc(Nc2ncc(Cl)c(NC3CC3)n2)c1 (stereo not drawn) [Example 47] | ≥ 70 | ≥ 70 |  | ≥ 70 | 
12 | O=C1CCCN1c1cc(Nc2ncc(Cl)c(NCC(F)F)n2)ccc1F [Example 51] |  | ≥ 70 | ≥ 70 |  | 
13 | CC1(C)CN(c2cccc(Nc3ncc(Br)c(NC4CC4)n3)c2)C1=O [Example 52] |  |  |  |  | ≥ 70
14 | O=C1CCCCCN1c1cccc(Nc2ncc(Cl)c(NC3CC3)n2)c1 [Example 55] |  | ≥ 70 | ≥ 70 |  | 
15 | CC(C)Nc1nc(Nc2ccc(N3CCOC3=O)cc2)ncc1Cl [Example 64] | ≥ 70 |  |  | ≥ 70 | ≥ 70
16 | COCC(C)Nc1nc(Nc2cccc(N3CCOC3=O)c2)ncc1Cl (stereo not drawn) [Example 67] | ≥ 70 |  |  | ≥ 70 | ≥ 70
17 | O=C1OCCN1c1cccc(Nc2ncc(Br)c(NC3CCC3)n2)c1 [Example 72] | ≥ 70 | ≥ 70 |  | ≥ 70 | ≥ 70
18 | CC1CC(=O)N(c2cccc(Nc3ncc(Br)c(NCC4CC4)n3)c2)C1=O (stereo not drawn) [Example 74] | ≥ 70 | ≥ 70 | ≥ 70 | ≥ 70 | 
19 | O=C1C(O)CCN1c1cccc(Nc2ncc(Cl)c(NC3CC3)n2)c1 (stereo not drawn) [Example 78] | ≥ 70 |  |  | ≥ 70 | 
20 | O=C1OCC(c2ccccc2)N1c1cccc(Nc2ncc(Cl)c(NC3CC3)n2)c1 (stereo not drawn) [Example 88] |  |  |  | ≥ 70 | ≥ 70

Row | Molecule | efficacy (Venturia inaequalis) [%] | efficacy (Sphaerotheca fuliginea) [%] | efficacy (Puccinia triticina) [%] | efficacy (Alternaria solani) [%] | efficacy (Botrytis cinerea) [%]
21 | C[C@@H]1COC(=O)N1c1cccc(Nc2ncc(Cl)c(NC3CCC3)n2)c1 [Example 102] | ≥ 70 | ≥ 70 |  |  | ≥ 70
22 | O=C1C[C@@H](O)CN1c1cccc(Nc2ncc(Cl)c(NC3CC3)n2)c1 [Example 108] | ≥ 70 | ≥ 70 |  |  | 
23 | O=C1CCC(=O)N1c1cc(Nc2ncc(C(F)(F)F)c(NC3CC3)n2)ccc1Cl [Example 119, 1-(2-Chloro-5-{[4-(cyclopropylamino)-5-(trifluoromethyl)pyrimidin-2-yl]amino}phenyl)pyrrolidine-2,5-dione] | ≥ 70 |  |  | ≥ 70 | 
24 | C[C@@H]1CCN(c2cccc(Nc3ncc(Cl)c(NC4CC4)n3)c2)C1=O [Example 123] |  |  | ≥ 70 |  | 
25 | C[C@H]1CCN(c2cccc(Nc3ncc(Cl)c(NC4CC4)n3)c2)C1=O [Example 124] |  |  | ≥ 70 |  | 
26 | CC1CCC(=O)N1c1cccc(Nc2ncc(Cl)c(NC3CC3)n2)c1 (stereo not drawn) [Example 125] |  |  | ≥ 70 |  | 
27 | CC1CCC(=O)N1c1cccc(Nc2ncc(Cl)c(NC3CC3)n2)c1 (stereo not drawn) [Example 126] |  |  | ≥ 70 |  | 
28 | CC(C)Nc1nc(Nc2cccc(N3C(=O)OCC3C(C)C)c2)ncc1Br (stereo not drawn) [Example 129] | ≥ 70 | ≥ 70 |  | ≥ 70 | ≥ 70
29 | CC(C)C1COC(=O)N1c1cccc(Nc2ncc(Br)c(NCC(F)F)n2)c1 (stereo not drawn) [Example 130] | ≥ 70 | ≥ 70 |  | ≥ 70 | ≥ 70
30 | CC1CCC(=O)N1c1cccc(Nc2ncc(Br)c(NCC3CC3)n2)c1 (stereo not drawn) [Example 133] | ≥ 70 | ≥ 70 |  | ≥ 70 | 
31 | CC1(C)CC(=O)N(c2cccc(Nc3ncc(Cl)c(NCC(F)(F)F)n3)c2)C1=O [Example 170] |  |  |  | ≥ 70 | ≥ 70
32 | CC(C)Nc1nc(Nc2ccc(F)c(N3CCCC3=O)c2)ncc1Cl [Example 197] | ≥ 70 | ≥ 70 | ≥ 70 | ≥ 70 | 
33 | COCC(C)Nc1nc(Nc2cccc(N3C(=O)CCC3=O)c2)ncc1Cl (stereo not drawn) [Example 202] | ≥ 70 | ≥ 70 |  |  | ≥ 70
34 | O=C1CCC(=O)N1c1cccc(Nc2ncc(Cl)c(NC3CCC3)n2)c1 [Example 203] |  | ≥ 70 | ≥ 70 |  | 
35 | CCNc1nc(Nc2cccc(N3CCCC3=O)c2)ncc1Cl [Example 204] | ≥ 70 |  |  | ≥ 70 | ≥ 70
36 | O=CN(c1cccc(N2CCCC2=O)c1)c1ncc(Cl)c(NC2CC2)n1 [Example 217, N-[5-Chloro-4-(cyclopropylamino)pyrimidin-2-yl]-N-[3-(2-oxopyrrolidin-1-yl)phenyl]-formamide] |  |  | ≥ 70 |  | 
37 | CC1CC1Nc1nc(Nc2cccc(N3CCCCC3=O)c2)ncc1Br (stereo not drawn) [Example 223] |  | ≥ 70 | ≥ 70 |  | 
38 | CC1CCN(Cc2cccc(Nc3ncc(Cl)c(N(C)C4CC4)n3)c2)C1=O (stereo not drawn) [Example 233] | ≥ 70 | ≥ 70 |  | ≥ 70 | 
39 | CC1CC1Nc1nc(Nc2cccc(N3C(=O)OCC3C)c2)ncc1Br (stereo not drawn) [Example 239] |  | ≥ 70 | ≥ 70 |  | 
40 | CC1CC(=O)N(c2cccc(Nc3ncc(C(F)(F)F)c(NC4CC4)n3)c2)C1 (stereo not drawn) [Example 240] |  | ≥ 70 | ≥ 70 | ≥ 70 | 

Row | Molecule | efficacy (Venturia inaequalis) [%] | efficacy (Sphaerotheca fuliginea) [%] | efficacy (Puccinia triticina) [%] | efficacy (Alternaria solani) [%] | efficacy (Botrytis cinerea) [%]
41 | CC1CC1Nc1nc(Nc2cccc(N3C(=O)CC(C)(C)C3=O)c2)ncc1Cl (stereo not drawn) [Example 246] |  | ≥ 70 | ≥ 70 |  | 
42 | CC1CC(Nc2nc(Nc3cccc(N4C(=O)CCC4C)c3)ncc2Cl)C1 (stereo not drawn) [Example 253] | ≥ 70 | ≥ 70 |  | ≥ 70 | 
43 | CC(C)C1COC(=O)N1c1cccc(Nc2ncc(C(F)(F)F)c(NC3CCC3)n2)c1 (stereo not drawn) [Example 263] |  | ≥ 70 |  | ≥ 70 | 
44 | CC1CN(c2cccc(Nc3ncc(Cl)c(NC4CC4)n3)c2)C(=O)O1 (stereo not drawn) [Example 264] |  |  | ≥ 70 | ≥ 70 | 
45 | CC1CC(Nc2nc(Nc3cccc(N4C(=O)CC(C)C4=O)c3)ncc2Br)C1 (stereo not drawn) [Example 281] | ≥ 70 | ≥ 70 |  | ≥ 70 | 
46 | O=C1N(CCCl)CCN1c1cccc(Nc2ncc(Br)c(NC3CC3)n2)c1 [Example 285] |  | ≥ 70 | ≥ 70 | ≥ 70 | 
47 | CC1CC(Nc2nc(Nc3cccc(N4C(=O)C(C)CC4C)c3)ncc2Br)C1 (stereo not drawn) [Example 291] |  | ≥ 70 |  | ≥ 70 | 
48 | CC1CC1Nc1nc(Nc2cccc(N3C(=O)CC(C)(C)C3=O)c2)ncc1Br (stereo not drawn) [Example 295] |  | ≥ 70 | ≥ 70 | ≥ 70 | 
49 | CC(CF)Nc1nc(Nc2cccc(N3CCCC3=O)c2)ncc1C(F)(F)F (stereo not drawn) [Example 298] |  | ≥ 70 | ≥ 70 |  | 
50 | CC1CC(Nc2nc(Nc3cccc(N4CCCC4=O)c3)ncc2Cl)C1 (stereo not drawn) [Example 299] |  | ≥ 70 | ≥ 70 |  | 
51 | O=C1CCCN1c1cccc(Nc2ncc(C(F)(F)F)c(NCCF)n2)c1 [Example 302] |  | ≥ 70 | ≥ 70 |  | 
52 | CC1CC1N(C)c1nc(Nc2cccc(N3CCCC3=O)c2)ncc1Cl (stereo not drawn) [Example 304] | ≥ 70 | ≥ 70 |  |  | ≥ 70
53 | COC(=O)N(c1cccc(N2CCCC2=O)c1)c1ncc(C(F)(F)F)c(NC2CC2)n1 [Example 309] |  | ≥ 70 | ≥ 70 |  | 
54 | O=C1CCCN1c1cccc(Nc2ncc(C(F)(F)F)c(NCC(F)F)n2)c1 [Example 311] |  | ≥ 70 | ≥ 70 |  | 
55 | O=C1CCC(C(F)(F)F)N1c1cccc(Nc2ncc(C(F)(F)F)c(NC3CC3)n2)c1 (stereo not drawn) [Example 314] |  | ≥ 70 |  | ≥ 70 | 
56 | Cc1ccc(Nc2ncc(C(F)(F)F)c(NC3CC3)n2)cc1N1CCCC1=O [Example 316] |  | ≥ 70 | ≥ 70 |  | 
57 | O=C1CCCN1c1cccc(Nc2ncc(C(F)(F)F)c(NC3COC3)n2)c1 [Example 322] |  |  | ≥ 70 | ≥ 70 | 
58 | COc1ccc(Nc2ncc(C(F)(F)F)c(NC3CC3)n2)cc1N1CCCC1=O [Example 324] |  | ≥ 70 | ≥ 70 |  | 
